The other results are listed elsewhere or left out.
What was measured:
Assay in all cases: log2 fold change, soluble protein after heating vs DMSO (PISA); higher = thermal stabilisation; K562 lysate, 10 uM; active = over 0.2 and 3.5 SD of the protein, either way, in both replicates (recomputed)
[1] = compound: CCCS(=O)(=O)Nc1ccc(F)c(C(=O)c2c[nH]c3ncc(-c4ccc(Cl)cc4)cc23)c1F [vemurafenib]
Summary of the method: (§1)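 Pellets of K562 cells were dounce-homogenised in PBS pH 7.4 with 1 mM MgCl2, and the crude extract was held at 1 mg/mL protein for a 30 min treatment with 10 μM compound. Aliquots were heated for 3 min over 48°C-58°C and pooled before NP-40 was added to 0.5% at 4°C. The supernatant from 21,000xg for 90 min was quantified by TMTpro 16plex LC-MS/MS with channel sums equalised. Values are reported from duplicates as log-two fold change in thermal stability relative to solvent controls.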

Amino acid sequences for entries named in this document (tags omitted). A change or cut given only in a name is not applied to a line headed by its entry.
UniProt P31641: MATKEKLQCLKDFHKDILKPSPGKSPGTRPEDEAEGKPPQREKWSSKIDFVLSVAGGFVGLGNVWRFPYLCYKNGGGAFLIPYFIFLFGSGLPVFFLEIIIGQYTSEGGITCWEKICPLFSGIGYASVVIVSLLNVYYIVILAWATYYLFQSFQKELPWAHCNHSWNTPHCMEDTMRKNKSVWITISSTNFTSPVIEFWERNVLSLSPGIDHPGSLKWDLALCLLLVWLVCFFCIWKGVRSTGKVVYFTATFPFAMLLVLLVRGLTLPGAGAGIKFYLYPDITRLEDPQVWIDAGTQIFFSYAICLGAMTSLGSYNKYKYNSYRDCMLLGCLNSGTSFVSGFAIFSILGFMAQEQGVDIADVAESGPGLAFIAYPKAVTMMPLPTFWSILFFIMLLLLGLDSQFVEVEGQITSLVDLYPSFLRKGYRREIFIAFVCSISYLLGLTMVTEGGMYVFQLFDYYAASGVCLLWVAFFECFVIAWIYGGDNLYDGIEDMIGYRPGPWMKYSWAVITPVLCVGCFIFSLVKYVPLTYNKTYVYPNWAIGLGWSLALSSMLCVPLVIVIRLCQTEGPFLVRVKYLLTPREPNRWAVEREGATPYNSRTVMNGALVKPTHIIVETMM
UniProt P48067: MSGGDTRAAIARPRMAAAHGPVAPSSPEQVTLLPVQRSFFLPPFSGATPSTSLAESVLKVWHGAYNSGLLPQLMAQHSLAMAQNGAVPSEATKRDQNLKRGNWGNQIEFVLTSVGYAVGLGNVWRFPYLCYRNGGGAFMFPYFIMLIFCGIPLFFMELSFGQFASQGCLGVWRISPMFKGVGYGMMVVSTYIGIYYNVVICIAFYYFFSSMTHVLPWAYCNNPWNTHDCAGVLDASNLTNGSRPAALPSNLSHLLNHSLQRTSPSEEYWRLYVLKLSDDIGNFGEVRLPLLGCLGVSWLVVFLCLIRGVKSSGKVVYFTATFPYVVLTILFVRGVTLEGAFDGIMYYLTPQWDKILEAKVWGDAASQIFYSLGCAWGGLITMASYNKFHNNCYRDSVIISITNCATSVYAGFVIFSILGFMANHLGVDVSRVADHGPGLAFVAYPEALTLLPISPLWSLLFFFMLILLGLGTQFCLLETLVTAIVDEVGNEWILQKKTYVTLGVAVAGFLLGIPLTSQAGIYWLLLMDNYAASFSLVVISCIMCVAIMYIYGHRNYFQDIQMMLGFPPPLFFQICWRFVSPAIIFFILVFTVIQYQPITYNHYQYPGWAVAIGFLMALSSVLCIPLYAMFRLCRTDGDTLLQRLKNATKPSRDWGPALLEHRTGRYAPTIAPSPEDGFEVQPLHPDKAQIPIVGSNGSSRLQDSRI
UniProt P05141: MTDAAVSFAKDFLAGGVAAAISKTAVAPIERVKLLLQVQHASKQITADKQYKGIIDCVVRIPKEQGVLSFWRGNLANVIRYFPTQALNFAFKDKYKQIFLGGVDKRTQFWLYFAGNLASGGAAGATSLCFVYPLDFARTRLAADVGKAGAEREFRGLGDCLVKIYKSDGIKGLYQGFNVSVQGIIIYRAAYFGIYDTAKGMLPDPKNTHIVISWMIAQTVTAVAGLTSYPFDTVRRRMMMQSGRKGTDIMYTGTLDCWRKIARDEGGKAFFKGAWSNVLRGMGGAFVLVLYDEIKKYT
UniProt Q9BSK2: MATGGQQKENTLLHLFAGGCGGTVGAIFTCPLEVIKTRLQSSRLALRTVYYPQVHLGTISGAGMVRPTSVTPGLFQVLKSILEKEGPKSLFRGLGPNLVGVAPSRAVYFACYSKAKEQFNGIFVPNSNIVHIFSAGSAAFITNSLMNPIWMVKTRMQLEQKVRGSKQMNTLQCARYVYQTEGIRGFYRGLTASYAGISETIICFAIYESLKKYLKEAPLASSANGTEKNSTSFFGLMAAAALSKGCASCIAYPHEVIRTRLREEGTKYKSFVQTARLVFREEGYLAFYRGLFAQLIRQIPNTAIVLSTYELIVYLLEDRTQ
UniProt Q7Z2H8: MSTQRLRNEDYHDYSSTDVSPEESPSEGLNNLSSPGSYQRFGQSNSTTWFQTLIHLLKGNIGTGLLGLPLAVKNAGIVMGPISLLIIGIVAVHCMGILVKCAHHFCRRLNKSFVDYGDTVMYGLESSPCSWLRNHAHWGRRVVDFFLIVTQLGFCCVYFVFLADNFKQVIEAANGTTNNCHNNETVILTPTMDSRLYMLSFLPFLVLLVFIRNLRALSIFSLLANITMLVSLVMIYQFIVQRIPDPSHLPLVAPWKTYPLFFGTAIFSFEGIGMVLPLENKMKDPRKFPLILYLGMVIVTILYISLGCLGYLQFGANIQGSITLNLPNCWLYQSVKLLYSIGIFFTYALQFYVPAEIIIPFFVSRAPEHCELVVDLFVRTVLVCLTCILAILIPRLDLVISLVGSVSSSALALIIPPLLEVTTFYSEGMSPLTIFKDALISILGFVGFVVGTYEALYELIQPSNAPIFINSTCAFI
UniProt Q8IXU6: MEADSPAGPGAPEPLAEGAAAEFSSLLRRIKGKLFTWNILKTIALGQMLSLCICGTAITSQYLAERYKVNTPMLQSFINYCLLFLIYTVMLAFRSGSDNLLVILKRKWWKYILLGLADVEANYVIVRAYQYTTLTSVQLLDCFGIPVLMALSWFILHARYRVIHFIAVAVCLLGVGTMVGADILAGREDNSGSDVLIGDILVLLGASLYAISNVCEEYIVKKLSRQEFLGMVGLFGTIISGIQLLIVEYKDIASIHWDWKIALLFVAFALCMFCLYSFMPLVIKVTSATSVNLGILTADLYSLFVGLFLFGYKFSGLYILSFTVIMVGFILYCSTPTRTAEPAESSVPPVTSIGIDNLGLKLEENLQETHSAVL
UniProt Q9HAB3: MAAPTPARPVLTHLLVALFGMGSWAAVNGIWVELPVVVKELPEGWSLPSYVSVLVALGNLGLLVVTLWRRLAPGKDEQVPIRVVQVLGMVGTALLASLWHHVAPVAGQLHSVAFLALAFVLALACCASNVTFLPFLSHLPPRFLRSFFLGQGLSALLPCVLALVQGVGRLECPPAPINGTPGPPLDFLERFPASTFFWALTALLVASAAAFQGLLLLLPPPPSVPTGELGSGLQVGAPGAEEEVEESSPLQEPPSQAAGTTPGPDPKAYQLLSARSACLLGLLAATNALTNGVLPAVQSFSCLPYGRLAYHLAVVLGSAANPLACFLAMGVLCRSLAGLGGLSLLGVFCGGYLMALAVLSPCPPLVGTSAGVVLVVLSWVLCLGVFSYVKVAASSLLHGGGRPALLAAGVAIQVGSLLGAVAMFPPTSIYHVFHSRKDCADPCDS
UniProt O43826: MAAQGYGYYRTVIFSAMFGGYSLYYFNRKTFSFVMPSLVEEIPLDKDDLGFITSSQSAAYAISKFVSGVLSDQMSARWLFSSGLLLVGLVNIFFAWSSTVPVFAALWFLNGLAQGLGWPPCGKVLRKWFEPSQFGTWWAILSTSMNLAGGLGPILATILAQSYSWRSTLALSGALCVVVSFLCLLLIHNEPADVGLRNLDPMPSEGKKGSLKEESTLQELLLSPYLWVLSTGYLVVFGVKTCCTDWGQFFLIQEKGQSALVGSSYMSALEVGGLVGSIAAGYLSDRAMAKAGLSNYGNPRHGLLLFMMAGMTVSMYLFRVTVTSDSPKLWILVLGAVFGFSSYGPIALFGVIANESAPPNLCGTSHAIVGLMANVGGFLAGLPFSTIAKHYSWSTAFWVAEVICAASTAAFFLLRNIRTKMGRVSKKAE
UniProt Q9NP59: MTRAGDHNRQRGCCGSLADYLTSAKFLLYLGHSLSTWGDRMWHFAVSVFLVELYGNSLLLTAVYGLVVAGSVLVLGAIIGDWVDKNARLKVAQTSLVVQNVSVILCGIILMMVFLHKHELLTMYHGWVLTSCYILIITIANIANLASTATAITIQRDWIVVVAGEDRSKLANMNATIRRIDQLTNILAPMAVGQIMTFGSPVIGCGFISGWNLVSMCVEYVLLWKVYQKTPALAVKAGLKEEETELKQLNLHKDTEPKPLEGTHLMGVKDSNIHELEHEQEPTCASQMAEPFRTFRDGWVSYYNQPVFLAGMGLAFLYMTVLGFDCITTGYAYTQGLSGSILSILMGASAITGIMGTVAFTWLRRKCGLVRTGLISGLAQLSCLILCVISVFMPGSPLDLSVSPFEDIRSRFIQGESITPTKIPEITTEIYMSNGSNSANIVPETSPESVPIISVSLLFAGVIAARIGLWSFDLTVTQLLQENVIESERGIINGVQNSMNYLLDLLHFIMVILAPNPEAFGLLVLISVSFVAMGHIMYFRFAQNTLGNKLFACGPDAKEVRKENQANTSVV
UniProt O15431: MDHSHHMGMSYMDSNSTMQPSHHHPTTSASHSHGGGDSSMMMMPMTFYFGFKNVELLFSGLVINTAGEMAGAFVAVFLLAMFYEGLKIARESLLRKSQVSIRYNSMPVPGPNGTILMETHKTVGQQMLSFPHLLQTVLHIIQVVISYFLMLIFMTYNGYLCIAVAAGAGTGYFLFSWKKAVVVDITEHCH
UniProt O15198: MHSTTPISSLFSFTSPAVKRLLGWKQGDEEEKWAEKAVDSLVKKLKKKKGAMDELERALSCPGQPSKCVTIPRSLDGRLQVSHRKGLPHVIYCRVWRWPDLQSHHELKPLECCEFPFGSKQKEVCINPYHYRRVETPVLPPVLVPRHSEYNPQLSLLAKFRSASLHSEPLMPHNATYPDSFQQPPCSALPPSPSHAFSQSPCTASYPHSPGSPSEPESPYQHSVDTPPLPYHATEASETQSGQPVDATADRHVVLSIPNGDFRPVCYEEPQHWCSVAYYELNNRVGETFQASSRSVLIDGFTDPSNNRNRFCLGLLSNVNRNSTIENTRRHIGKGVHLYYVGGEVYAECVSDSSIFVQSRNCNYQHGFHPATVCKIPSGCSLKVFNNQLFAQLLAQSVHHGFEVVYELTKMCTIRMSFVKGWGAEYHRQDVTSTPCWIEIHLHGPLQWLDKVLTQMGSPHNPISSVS
UniProt P11169: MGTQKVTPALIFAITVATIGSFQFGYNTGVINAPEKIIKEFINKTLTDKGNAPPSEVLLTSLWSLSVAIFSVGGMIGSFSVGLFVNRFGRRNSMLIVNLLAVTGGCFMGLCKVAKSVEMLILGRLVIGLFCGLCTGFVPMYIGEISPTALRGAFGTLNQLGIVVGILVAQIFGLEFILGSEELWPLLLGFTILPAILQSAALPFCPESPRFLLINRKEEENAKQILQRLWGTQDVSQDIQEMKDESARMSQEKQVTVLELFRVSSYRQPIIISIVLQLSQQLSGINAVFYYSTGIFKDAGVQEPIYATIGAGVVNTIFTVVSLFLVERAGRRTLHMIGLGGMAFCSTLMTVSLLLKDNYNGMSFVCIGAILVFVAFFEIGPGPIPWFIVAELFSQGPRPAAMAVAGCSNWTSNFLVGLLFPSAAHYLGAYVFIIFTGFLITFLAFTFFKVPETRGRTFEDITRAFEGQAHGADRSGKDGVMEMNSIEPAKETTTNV
UniProt Q92504: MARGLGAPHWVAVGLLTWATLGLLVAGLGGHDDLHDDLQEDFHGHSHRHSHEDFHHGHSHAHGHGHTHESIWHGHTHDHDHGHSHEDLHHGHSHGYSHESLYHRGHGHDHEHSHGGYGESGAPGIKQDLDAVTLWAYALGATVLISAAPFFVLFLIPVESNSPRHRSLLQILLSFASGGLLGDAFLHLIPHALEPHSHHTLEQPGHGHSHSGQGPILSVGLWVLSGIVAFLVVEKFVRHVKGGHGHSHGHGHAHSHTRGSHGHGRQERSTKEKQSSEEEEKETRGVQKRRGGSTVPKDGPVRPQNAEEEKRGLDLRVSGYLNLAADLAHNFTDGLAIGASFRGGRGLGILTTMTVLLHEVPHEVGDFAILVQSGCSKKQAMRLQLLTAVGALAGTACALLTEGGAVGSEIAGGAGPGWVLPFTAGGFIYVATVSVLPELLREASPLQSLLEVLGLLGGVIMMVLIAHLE
UniProt P78383: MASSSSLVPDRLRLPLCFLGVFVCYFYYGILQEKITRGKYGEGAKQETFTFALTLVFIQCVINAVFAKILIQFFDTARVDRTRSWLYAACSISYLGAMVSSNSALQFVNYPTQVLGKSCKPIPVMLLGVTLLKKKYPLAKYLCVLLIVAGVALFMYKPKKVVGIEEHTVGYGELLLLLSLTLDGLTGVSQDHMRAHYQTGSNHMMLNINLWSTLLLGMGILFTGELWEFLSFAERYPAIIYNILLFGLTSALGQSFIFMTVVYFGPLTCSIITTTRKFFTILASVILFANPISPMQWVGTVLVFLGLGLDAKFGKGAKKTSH
UniProt Q9Y2D2: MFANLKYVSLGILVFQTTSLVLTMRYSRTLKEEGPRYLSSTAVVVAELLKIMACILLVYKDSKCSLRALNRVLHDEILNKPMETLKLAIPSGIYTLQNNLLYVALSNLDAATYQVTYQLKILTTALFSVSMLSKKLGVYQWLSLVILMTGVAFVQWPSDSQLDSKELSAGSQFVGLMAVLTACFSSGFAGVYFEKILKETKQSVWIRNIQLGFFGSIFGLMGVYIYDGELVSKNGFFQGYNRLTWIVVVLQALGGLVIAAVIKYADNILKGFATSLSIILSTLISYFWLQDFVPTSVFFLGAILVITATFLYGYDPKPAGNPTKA

[2] = compound: CCCS(=O)(=O)Nc1ccc(F)c(C(=O)c2c[nH]c3ncc(Cl)cc23)c1F
Summary of the method: as §1

[3] = compound: CCN(CCCOc1ccc2c(Nc3cc(CC(=O)Nc4cccc(F)c4)[nH]n3)ncnc2c1)CCOP(=O)(O)O [barasertib]
Summary of the method: as §1

[4] = compound: CC[C@@H]1C(=O)N(C)c2cnc(Nc3ccc(C(=O)NC4CCN(C)CC4)cc3OC)nc2N1C1CCCC1
Summary of the method: as §1

[5] = compound: CC[C@@H]1C(=O)N(C)c2cnc(Nc3ccc(C(=O)N[C@H]4CC[C@H](N5CCN(CC6CC6)CC5)CC4)cc3OC)nc2N1C(C)C [volasertib]
Summary of the method: as §1

[6] = compound: CCn1c(C(=O)N(C2CC2)C2CC2)cc2c3c(ncn3C)c(Nc3cc(C)n(C)n3)nc21
Summary of the method: as §1

[7] = compound: CCn1cc(-c2ccnc3[nH]c(-c4cccc(CN(C)C)c4)cc23)c(-c2ccc(NC(=O)N(C)C)cc2)n1
Summary of the method: as §1

[8] = compound: CN1CCC(CNc2ccc3ncc(-c4cccc(OC(F)(F)F)c4)n3n2)CC1
Summary of the method: as §1

[9] = compound: CN1CCN(CCOc2cc(OC3CCOCC3)c3c(Nc4c(Cl)ccc5c4OCO5)ncnc3c2)CC1 [saracatinib]
Summary of the method: as §1

[10] = compound: CN1CCN(c2nc(C3=C(c4c[nH]c5ccccc45)C(=O)NC3=O)c3ccccc3n2)CC1 [sotrastaurin]
Summary of the method: as §1

Measured: log2 fold change

SLC22A23 (UniProt A1A5C7)
inactive: [1] 0.016 | [2] 0.001 | [3] 0.008 | [4] 0.035 | [5] -0.003 | [6] -0.06 | [7] -0.154 | [8] 0.066 | [9] 0.064 | [10] -0.024

SLC6A6 (UniProt P31641)
inactive: [1] 0.15 | [2] -0.004 | [3] 0.006 | [4] 0.018 | [5] 0.014 | [6] 0.002 | [7] 0.115 | [8] -0.047 | [9] -0.059 | [10] 0.016

SLC35E1 (UniProt Q96K37)
inactive: [1] -0.031 | [2] 0.018 | [3] -0.006 | [4] 0.039 | [5] 0.019 | [6] -0.009 | [7] -0.002 | [8] -0.013 | [9] -0.017 | [10] 0.004

SLC6A9 isoform 2 (UniProt P48067)
inactive: [1] -0.072 | [2] -0.031 | [3] 0.032 | [4] 0.081 | [5] 0.029 | [6] -0.055 | [7] -0.063 | [8] 0.051 | [9] -0.004 | [10] 0.061

SLC25A5 (UniProt P05141)
inactive: [1] 0.012 | [2] 0.019 | [3] -0.05 | [4] 0.058 | [5] 0.032 | [6] -0.031 | [7] 0.17 | [8] -0.113 | [9] 0.038 | [10] -0.027

SLC25A33 (UniProt Q9BSK2)
inactive: [1] -0.034 | [2] -0.011 | [3] -0.06 | [4] -0.003 | [5] 0.025 | [6] -0.063 | [7] -0.072 | [8] 0.045 | [9] 0.003 | [10] 0.036

SLC36A1 (UniProt Q7Z2H8)
inactive: [1] 0.082 | [2] 0.038 | [3] 0.028 | [4] -0.062 | [5] -0.072 | [6] -0.037 | [7] -0.021 | [8] 0.129 | [9] -0.037 | [10] 0.034

SLC35F2 (UniProt Q8IXU6)
inactive: [1] 0.015 | [2] 0.008 | [3] -0.063 | [4] 0.012 | [5] 0.023 | [6] 0.015 | [7] -0.188 | [8] 0.124 | [9] -0.021

SLC2A1 (UniProt P11166)
inactive: [1] 0.022 | [2] -0.018 | [3] -0.064 | [4] -0.023 | [5] 0.024 | [6] -0.025 | [7] 0.045 | [8] 0.055 | [9] 0.022 | [10] 0.007

SLC8B1 (UniProt Q6J4K2)
inactive: [1] 0.167 | [2] 0.143 | [5] 0.003 | [7] -0.043 | [8] 0.126 | [9] -0.069

SLC52A2 (UniProt Q9HAB3)
inactive: [1] -0.102 | [2] -0.095 | [3] 0.038 | [4] -0.099 | [5] -0.119 | [6] 0.022 | [7] -0.144 | [8] 0.017 | [9] 0.031 | [10] 0.009

SLC25A12 (UniProt O75746)
inactive: [1] -0.006 | [2] 0.011 | [3] -0.026 | [4] 0.075 | [5] 0.037 | [6] -0.046 | [7] -0.052 | [8] 0.015 | [9] -0.012 | [10] -0.011

SLC37A4 isoform 2 (UniProt O43826)
inactive: [1] 0.034 | [2] 0.035 | [3] 0.039 | [4] 0.001 | [5] 0.036 | [6] -0.02 | [7] -0.224 | [8] 0.099 | [9] 0.015 | [10] -0.019

SLC35C1 (UniProt Q96A29)
inactive: [1] -0.019 | [2] 0.006 | [3] 0.116 | [4] 0.034 | [5] -0.042 | [6] -0.057 | [10] 0.044

SLC45A4 isoform 3 (UniProt Q5BKX6)
inactive: [1] 0.06 | [2] 0.013 | [3] 0 | [4] -0.265 | [5] -0.005 | [6] 0.05 | [7] 0.17 | [8] -0.114 | [10] 0.068

SMAD2 (UniProt Q15796)
inactive: [1] -0.027 | [2] 0.074 | [3] 0.03 | [4] -0.031 | [5] -0.006 | [6] -0.027 | [7] 0.025 | [8] -0.003 | [9] 0.017 | [10] -0.002

SLC7A6OS (UniProt Q96CW6)
inactive: [1] -0.001 | [2] 0.014 | [3] -0.004 | [4] 0.049 | [5] -0.003 | [6] -0.04 | [7] -0.1 | [8] 0.05 | [9] 0.028 | [10] -0.028

SLC40A1 (UniProt Q9NP59)
active: [7] -0.491
inactive: [1] 0.01 | [2] -0.037 | [4] 0.123 | [5] 0.037 | [6] -0.106 | [8] 0.067 | [9] 0 | [10] 0.026

SLC22A5 isoform 3 (UniProt O76082)
inactive: [1] 0.015 | [2] -0.149 | [3] -0.064 | [5] 0.074 | [6] -0.319 | [7] -0.05 | [8] 0.079 | [9] 0.134 | [10] -0.043

SLC39A11 (UniProt Q8N1S5)
inactive: [1] -0.082 | [2] 0.073 | [3] -0.126 | [4] 0.067 | [5] 0.011 | [6] 0.028 | [7] -0.043 | [8] 0.147 | [9] -0.108 | [10] -0.009

SLC25A30 (UniProt Q5SVS4)
inactive: [1] -0.054 | [2] -0.017 | [3] 0.033 | [5] 0.025 | [6] 0.012 | [7] -0.017 | [8] 0.068 | [9] -0.129 | [10] 0.067

SLC31A1 (UniProt O15431)
inactive: [1] 0.094 | [2] -0.001 | [3] 0.182 | [5] 0.302 | [6] -0.032 | [7] -0.047 | [8] -0.098 | [9] 0.073 | [10] 0.045

SMAP (UniProt O00193)
inactive: [1] -0.044 | [2] 0.025 | [3] -0.032 | [4] -0.034 | [5] -0.007 | [6] -0.004 | [7] -0.024 | [8] 0.068 | [9] -0.007 | [10] -0.014

SMAD9 (UniProt O15198)
inactive: [1] -0.045 | [2] -0.003 | [3] 0.032 | [4] -0.011 | [5] 0.024 | [6] 0.111 | [7] 0.021 | [8] 0.048 | [9] 0.08 | [10] 0.007

SLC2A3 (UniProt P11169)
inactive: [1] 0.002 | [2] -0.011 | [3] 0.015 | [4] 0.042 | [5] 0.005 | [6] -0.048 | [7] -0.022 | [8] 0.084 | [9] -0.037 | [10] 0.036

SLC39A7 (UniProt Q92504)
inactive: [1] 0.094 | [2] 0.039 | [3] -0.012 | [4] 0.071 | [5] 0.008 | [6] 0.023 | [7] -0.049 | [8] 0.092 | [10] 0.029

SLC25A36 (UniProt Q96CQ1)
inactive: [1] -0.272 | [2] 0.007 | [4] 0.113 | [5] -0.045 | [6] 0.039 | [7] -0.016 | [8] 0.035 | [9] -0.001 | [10] -0.055

SLC35B1 isoform 2 (UniProt P78383)
inactive: [1] 0.059 | [2] 0.024 | [4] 0.094 | [5] 0.148 | [6] -0.1 | [7] -0.227 | [8] 0.365 | [9] 0.007 | [10] 0.019

Copied from the listing (2 entries):
SLC2A3 (UniProt P11169)
inactive: [1] 0.002 | [2] -0.011 | [3] 0.015 | [4] 0.042 | [5] 0.005 | [6] -0.048 | [7] -0.022 | [8] 0.084 | [9] -0.037 | [10] 0.036

SLC39A7 (UniProt Q92504)
inactive: [1] 0.094 | [2] 0.039 | [3] -0.012 | [4] 0.071 | [5] 0.008 | [6] 0.023 | [7] -0.049 | [8] 0.092 | [10] 0.029

(further entries)

SLC43A3 isoform 2 (UniProt Q8NBI5)
inactive: [1] -0.054 | [2] -0.02 | [3] -0.018 | [4] -0.006 | [5] 0.028 | [6] -0.003 | [7] -0.034 | [8] 0.043 | [9] -0.03 | [10] -0.057

SLIRP (UniProt Q9GZT3)
inactive: [1] -0.012 | [2] 0 | [3] -0.044 | [4] 0.039 | [5] 0.004 | [6] 0.015 | [7] -0.24 | [8] 0.034 | [9] -0.011 | [10] -0.026

SLC35A3 isoform 2 (UniProt Q9Y2D2)
inactive: [1] -0.024 | [2] -0.031 | [4] 0.056 | [5] 0.005 | [6] -0.374 | [8] 0.336 | [10] -0.026
active: [7] -1.1
